Article PMC3682533
Substitutions are numbered along the chain they refer to. No constants are given. Whether binding was seen depends on the method and setting. In cells and extracts the contact can be indirect. Some binding calls cover weakened binding; strength is not graded here. For part of these data: Sequences can lack the tags named with a protein.

Amino acid sequences for entries named in this document (tags omitted). A change or cut given only in a name is not applied to a line headed by its entry.
UniProt O14842: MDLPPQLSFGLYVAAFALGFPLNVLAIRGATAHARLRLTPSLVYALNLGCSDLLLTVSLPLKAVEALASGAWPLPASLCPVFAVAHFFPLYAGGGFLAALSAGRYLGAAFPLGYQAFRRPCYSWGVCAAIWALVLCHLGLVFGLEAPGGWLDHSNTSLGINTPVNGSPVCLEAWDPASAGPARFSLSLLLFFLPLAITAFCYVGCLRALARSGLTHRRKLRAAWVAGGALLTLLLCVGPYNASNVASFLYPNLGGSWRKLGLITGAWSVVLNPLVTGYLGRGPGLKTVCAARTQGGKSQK

Experiments:
Assay in all cases: FRET or BRET; BRET1 in intact HEK293T cells co-transfected 4:1 with receptor-eYFP and β-arrestin-2 Renilla luciferase; HBSS, coelenterazine h 2.5 μM 10 min at 37 °C, then small-molecule agonist (C3, compound 1, compound 2, TUG-424 or 4-CMTB) 5 min at 37 °C; ratio of luminescence at 535 and 475 nm; recruitment is agonist-stimulated
[1] = target: hFFA1 E145Q-eYFP (human) (UniProt O14842)
[2] = target: T1, hFFA2 L173A-eYFP (human) (UniProt O15552)
T1 sequence: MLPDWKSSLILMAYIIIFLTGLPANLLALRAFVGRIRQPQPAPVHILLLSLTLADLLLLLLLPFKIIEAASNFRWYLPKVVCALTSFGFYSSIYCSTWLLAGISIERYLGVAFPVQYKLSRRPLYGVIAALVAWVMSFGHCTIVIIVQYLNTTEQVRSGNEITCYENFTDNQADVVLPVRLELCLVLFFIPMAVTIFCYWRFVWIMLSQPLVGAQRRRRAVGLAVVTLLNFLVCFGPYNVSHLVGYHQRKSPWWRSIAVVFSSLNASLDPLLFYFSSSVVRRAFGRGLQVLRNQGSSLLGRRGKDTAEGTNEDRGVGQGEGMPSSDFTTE

[3] = target: T2, hFFA2 Q148A-eYFP (human) (UniProt O15552)
T2 sequence: T1 sequence with Q148A, A173L

[4] = target: T3, hFFA2 Q148E-eYFP (human) (UniProt O15552)
T3 sequence: T1 sequence with Q148E, A173L

[5] = target: T4, hFFA2 S86G-eYFP (human) (UniProt O15552)
T4 sequence: T1 sequence with S86G, A173L

[6] = target: T5, human FFA2 free fatty acid receptor with enhanced yellow fluorescent protein fused to its C terminus (hFFA2-eYFP) (human) (UniProt O15552)
T5 sequence: T1 sequence with A173L

Measured: binding

β-arrestin-2 Renilla luciferase (from UniProt P32121 1-409)
binds: [1] | [2] | [3] | [4] | [5] | [6]
